According to patent US20120034228A1:
Results are given in words; binding and its absence hold for the method and conditions named. Some entries that bind do so weakly or less than the wild type.

T1: 1-27 CD3-EpCAM comprising the tamarin 27 mer (Saguinus oedipus; cynomolgus)
T1 sequence: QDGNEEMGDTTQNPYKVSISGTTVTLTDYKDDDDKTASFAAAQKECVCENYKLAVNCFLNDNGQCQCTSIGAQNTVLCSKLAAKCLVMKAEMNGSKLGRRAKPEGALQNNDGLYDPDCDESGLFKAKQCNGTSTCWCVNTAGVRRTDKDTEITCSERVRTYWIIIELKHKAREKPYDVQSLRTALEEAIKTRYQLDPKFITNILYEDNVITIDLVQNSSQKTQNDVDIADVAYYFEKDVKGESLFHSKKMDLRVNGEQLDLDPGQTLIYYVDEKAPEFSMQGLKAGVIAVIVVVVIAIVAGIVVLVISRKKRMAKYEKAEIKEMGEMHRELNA


Legend:
[1] = molecular target: human cMET extracellular domain fused to truncated human EpCAM (on CHO cells, Example 27.1) (human) (UniProt P08581); test: FACS on CHO cells
[2] = molecular target: T1, 1-27 CD3-EpCAM comprising the tamarin 27 mer (Saguinus oedipus; cynomolgus); test: FACS on transfected 293-HEK cells

binding [1]	binding [2]	Binder
binds	–	ME06B7HL (scFv) scFv: EVQLLEQSGAELVRPGTSVKISCKATGYTFTTYWLGWVKQRPGHGLEWIGEIHPGGGYTNYNEKFKGKATLTADTSSSTAYMQLSRLTSDDSAIYYCARSGYDYGSSYDYYGMDYWGQGTTVTVSSGGGGSGGGGSGGGGSELVMTQSPSSLSASLGERVSLTCRASQDIGSSLNWLQQEPDGTIKRLIYATSSLDSGVPKRFSGSRSGSDYSLTISSLESEDFVDYYCLQYASSPYTFGGGTKLEIK
binds	–	ME05F6HL (scFv) scFv: EVQLLEQSGAEVVRPGTSVKMSCKAAGYTFTKYWIGWVKQRPGHGLEWIGDIHPGGGFANYNEKFKGKATLTADTSSSTAYMQLSRLTSDDSAIYYCARSGYDYGSSYDYHGMDYWGQGTTVTVSSGGGGSGGGGSGGGGSELVMTQSPSSLSASLGERVSLTCRASQEISGYLSWLQQKPDGTIKRLIYAASTLDSGVPKRFSGSRSGSDYSLTISSLESEDFADYYCLQYASYPPTFGGGTKLEIK
binds	–	ME75H6HL (scFv) scFv: EVQLLEQSGAELVRPGTSVKMSCKAAGYTFTKYWIGWVKQRPGHGLEWIGDIHPGGGYANYNEKFKGKATLTADTSSSTAYMQLSRLTSDDSAIYYCARSGYDYGSSYDYHGMDFWGQGTTVTVSSGGGGSGGGGSGGGGSELQMTQSPASLSASVGEPVTFTCRASENIYSYLAWYQQKQGKSPQLLIYGATNLADGMSSRFSGSGSGRQYSLKISSLHPDDVATYYCQNVLSTPYTFGGGTKLEIK
binds	–	ME06F2HL (scFv) scFv: EVQLLEQSGAELMKPGASVKISCKATGYTFSNYWIGWVKQRPGHGLEWIGDIYPGGSYTNYNEKFKGKVTLTADTSSRTAYMQLSSLTFEDSAIYYCARSGYDYASDYDYHGMDYWGQGTTVTVSSGGGGSGGGGSGGGGSELVLTQSPSSMSASLGDRITITCQATQDIVKNLNWYQQKPGKPPSFLIYYATELAEGVPSRFSGSGSGSDYSLTISNLESEDFADYYCLQFYEFPYTFGGGTKLEIK
binds	–	ME06D2HL (scFv) scFv: EVQLLEQSGADLVRPGTSVKLSCKAAGYTFSRYWISWIRQRPGHGLEWIGEIYPGGGYGNYNENFKDKVTLTADTSSSTAYMQLSSLTSEDSAIYYCARSGYDYGSKYDYYGLDYWGQGTTVTVSSGGGGSGGGGSGGGGSELVMTQSPSSMYASLGERVTITCKASQDINSYLSWFQQKPGKSPKTLIYRANRLVDGVPSRFSGSGSGQDYSLTISSLEYEDMGIYYCLQYDAFPPTFGAGTKLEIK
–	binds	E2M HLP (scFv) scFv: EVQLLESGGGLVQPGGSLKLSCAASGFTFNGYAMNWVRQAPGKGLEWVARIRSKYNNYATYYADSVKERFTISRDDSKNTAYLQMNNLKTEDTAVYYCVRHRNFGNSYLSWFAYWGQGTLVTVSSGGGGSGGGGSGGGGSELVVTQEPSLTVSPGGTVTLTCRSSTGAVTSGYYPNWVQQKPGQAPRGLIGATDMRPSGTPARFSGSLLGGKAALTLSGVQPEDEAEYYCALWYSNRWVFGGGTKLTVL
binds	–	ME06C6HL (scFv) scFv: EVQLLEQSGAELVRPGTSVKIPCKATGYTFSYYWIGWVKQRPGHGLEWIGDIYPGGGYSNYNEKFKGKATLTADTSSSTAYMQLSGLTSEDSAIYYCARSGYDYGSDYDYHGLDYWGQGTTVTVSSGGGGSGGGGSGGGGSELVLTQSPASLAVSLGQRATISCRASESVEYYGTSLMQWYQQKPGQPPKLLIYAASNVESGVPARFSGSGSGTDFSLNIHPVEEDDIAMYFCQQSRKVPYTFGGGTKLEIK
binds	–	ME06D1HL (scFv) scFv: EVQLLEQSGAEVVRPGTSVKMSCKAAGYTFTKYWIGWVKQRPGHGLEWIGDIHPGGGFANYNEKFKGKATLTADTSSSTAYMQLSRLTSDDSAIYYCARSGYDYGSSYDYHGMDYWGQGTTVTVSSGGGGSGGGGSGGGGSELVMTQSPSSLTVTAGEKVTMSCKSSQSLLNSGNQKNYLAWYQQKPGQPPKLLIYGASTRESGVPDRFTGSGSGTDFTLTISSVQAEDLADYFCQQHYSTPYTFGGGTKLEIK
binds	–	ME05D7HL (scFv) scFv: EVQLLEQSGAELVRPGTSVKVSCKASGYAFTHYLIEWVKQRPGQGLEWIGMINPENTDTTYNEKFRDKAILTVDKSSNTAYMQLSSLTSDDSAVYFCARQEITSDFDFWGQGTTVTVSSGGGGSGGGGSGGGGSELVLTQSPTTMAASPGEKITITCSASSSISSNYLHWYQQKPGFSPKLLIYRTSNLASGVPARFSGSGSGTSYSLTIGTMEAEDVATYYCQQGSSIPYTFGGGTKLEIK
binds	–	ME99B1HL (scFv) scFv: EVQLLEQSGAELVRPGTSVKISCKATGYTFSNYWISWVKYRPGHGLEWIGDIYPGGSYTNYNEKFKGKVTLTADTSSRTAYMQLSGLTFEDSAIYYCARSGYDYGSDYDYHGMDYWGQGTTVTVSSGGGGSGGGGSGGGGSELQMTQSPASLSASVGETVTITCRASENIYSNLAWYQQKQGKSPQLLVYAATNLADGVPSRFSGSRSGSDYSLTISSLESEDFVDYYCLQYASYPYTFGGGTKLEIK
binds	–	ME06C7HL (scFv) scFv: EVQLLEQSGAEVVRPGTSVKMSCKAAGYTFTKYWIGWVKQRPGHGLEWIGDIHPGGGFANYNEKFKGKATLTADTSSSTAYMQLSRLTSDDSAIYYCARSGYDYGSSYDYHGMDYWGQGTTVTVSSGGGGSGGGGSGGGGSELQMTQSPTSLAVSLGQRATISCRASQTVYYDGNNYMNWYQHKPGQPPKLLIYATSNLESGIPARFSGSGSGTDFTLNIHPVEAEDAATYYCQQSYEDPYTFGGGTKLEIK
binds	–	ME05B7HL (scFv) scFv: EVQLLEQSGAELVRPGTSVKISCKTTGYTFGYYWISWLKQRPGHGLEWIGDIYPGGGYTNYHEKFKGKVTLTADTSSRTAYMQLSSLTFEDSAIYYCARSGYDYGSDYDYHGMDYWGQGTTVTVSSGGGGSGGGGSGGGGSELVMTQTPSSLSASLGDRVTISCRASQGISNYLNWYQQKPDGSVKLLIYYTSRLHSGVPSRFSGSGSGTDYSLTISNLDQEDIATYFCQQGNTLPWTFGGGTKLEIK
binds	–	ME06E10HL (scFv) scFv: EVQLLEQSGADLVRPGTSVKLSCKAAGYTFSRYWISWIRQRPGHGLEWIGEIYPGGGYGNYNENFKDKVTLTADTSSSTAYMQLSSLTSEDSAIYYCARSGYDYGSKYDYYGLDYWGQGTTVTVSSGGGGSGGGGSGGGGSELVMTQSPSSLSASLGERVSLTCRASQEISGYLSWLQQKPDGTIKRLIYAASTLDSGVPKRFSGSRSGSDYSLTISSLESEDFADYYCLQYASSPYTFGGGTKLEIK
